This note sets out measurements from PubChem BioAssay AID651900 (Broad Institute, 2012).

The other results are listed elsewhere or left out. Shown are side measurements of this screen, not its main read-out; they come without a call.

A short description of this assay: cytotoxicity in NIH3T3 fibroblasts, dose response, cytotoxicity control, cell-based, plate reader, cherry-pick, two tests (AID 651900). Particulars: test 2 concentration series, at 26 µM.

`O=C(Nc1ccc(N2CCOCC2)c(Cl)c1)c1cccnc1`: the activity is -6.09%.

Take `Cc1c(C(N)=O)sc(N)c1C(=O)OC(C)C`: the activity is -14.3%.

For the molecule `CCCOC(=O)c1cccc(NC(=O)c2cccnc2)c1`, the activity is -3.16%.

With `CCOC(=O)c1ccc2c(c1)nc(SCc1cn3ccsc3n1)n2CC`, the activity is -8.13%.

Regarding `CC(=O)c1ccc(C(=O)N2CCCC(CCC(=O)N(C)CCc3ccccn3)C2)s1` (stereo not drawn), the activity is -9.73%.

Turning to `CC(=O)c1ccc(NC(=O)COC(=O)Cc2ccsc2)cc1`, the activity is -2.62%.

On to `C=CCn1c(SCc2c(C(=O)OC)sc(N)c2C(=O)OC)nnc1-c1ccc(Br)cc1`, for which the activity worked out at 1.04%.

For `COC(=O)c1c(C(=O)OC)c(-c2ccccc2)n2c1CS(=O)C2` (stereo not drawn), the activity is 6.11%.

Take `COc1ccc(NC(=O)c2ccc(S(=O)(=O)N(C)C)cc2)cc1OC`: the activity was -4.93%.

Regarding `O=C(Nc1ncc2c(n1)CC(c1ccco1)CC2=O)c1ccccc1` (stereo not drawn), the activity is -7.21%.

For `Cc1ccccc1-n1c(SCC(=O)N(C)C2CCS(=O)(=O)C2)nc2ccccc2c1=O` (stereo not drawn), the activity was -0.245%.

Take `Cc1ccc(NC(=O)CSc2nc(=O)n(CCCN3CCOCC3)c3c2CCCC3)cc1F`: the activity worked out at 6.94%.

As for `O=C(Nc1ncc2c(n1)CC(c1ccco1)CC2=O)c1ccco1` (stereo not drawn), the activity amounted to 2.67%.

Consider `COc1cc(-c2n[nH]c(=S)n2C(C)c2ccccc2)cc(OC)c1OC` (stereo not drawn), for which the activity stood at 1.03%.

Consider `CCN(CC)c1ccc2cc(C(=O)c3cccs3)c(=O)oc2c1`, for which the activity is -9.03%.

As for `COc1cc(OC)c(C(=O)Nc2cccnc2)cc1OC`, the activity was -3.11%.

In the case of `O=C(c1ccc(S(=O)(=O)Nc2ccccc2F)cc1)N1CCN(c2ccccc2O)CC1`, the activity was -5.39%.

On to `CSc1ccc(S(=O)(=O)N2CCC(C(=O)Nc3cccnc3)CC2)cc1`, for which the activity turned out to be 3.17%.
